In PMC12824264:
These are yes or no findings as the source states them, for the method shown. Binding seen in cells or lysates may run through a third protein. A yes stands for co-enrichment or nearness to the bait. Other partners may have been found. For some of these results: A no says only that the protein was not detected with the bait.

Protein sequences, listed by entry. Tags and fused reporters are not part of them. Residues count along the entry.
UniProt P37023, residues 22-503: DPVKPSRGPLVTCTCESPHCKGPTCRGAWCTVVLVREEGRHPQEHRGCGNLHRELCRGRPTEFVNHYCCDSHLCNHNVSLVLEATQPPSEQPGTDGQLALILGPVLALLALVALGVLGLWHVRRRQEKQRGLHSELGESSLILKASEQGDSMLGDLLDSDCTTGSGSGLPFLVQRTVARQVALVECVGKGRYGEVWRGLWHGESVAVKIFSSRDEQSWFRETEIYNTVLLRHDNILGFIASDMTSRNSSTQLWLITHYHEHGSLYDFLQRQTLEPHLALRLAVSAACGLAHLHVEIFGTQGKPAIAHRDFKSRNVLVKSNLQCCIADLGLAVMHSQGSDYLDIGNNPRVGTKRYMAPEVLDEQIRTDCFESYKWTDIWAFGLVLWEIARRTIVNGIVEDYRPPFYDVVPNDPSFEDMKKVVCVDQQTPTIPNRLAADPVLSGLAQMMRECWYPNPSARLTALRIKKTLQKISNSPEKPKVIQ
UniProt Q15796: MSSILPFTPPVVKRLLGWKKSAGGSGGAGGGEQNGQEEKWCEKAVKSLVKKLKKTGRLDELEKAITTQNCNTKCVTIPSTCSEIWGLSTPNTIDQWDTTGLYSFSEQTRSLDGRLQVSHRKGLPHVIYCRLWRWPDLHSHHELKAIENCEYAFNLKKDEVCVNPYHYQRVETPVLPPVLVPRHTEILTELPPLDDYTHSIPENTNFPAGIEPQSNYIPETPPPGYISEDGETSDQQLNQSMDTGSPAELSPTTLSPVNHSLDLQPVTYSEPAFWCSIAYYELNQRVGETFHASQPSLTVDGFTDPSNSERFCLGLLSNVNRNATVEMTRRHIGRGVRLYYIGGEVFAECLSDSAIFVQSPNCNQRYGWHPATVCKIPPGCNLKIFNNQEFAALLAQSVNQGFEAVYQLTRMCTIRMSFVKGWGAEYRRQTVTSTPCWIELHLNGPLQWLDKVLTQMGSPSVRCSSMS
UniProt Q99717: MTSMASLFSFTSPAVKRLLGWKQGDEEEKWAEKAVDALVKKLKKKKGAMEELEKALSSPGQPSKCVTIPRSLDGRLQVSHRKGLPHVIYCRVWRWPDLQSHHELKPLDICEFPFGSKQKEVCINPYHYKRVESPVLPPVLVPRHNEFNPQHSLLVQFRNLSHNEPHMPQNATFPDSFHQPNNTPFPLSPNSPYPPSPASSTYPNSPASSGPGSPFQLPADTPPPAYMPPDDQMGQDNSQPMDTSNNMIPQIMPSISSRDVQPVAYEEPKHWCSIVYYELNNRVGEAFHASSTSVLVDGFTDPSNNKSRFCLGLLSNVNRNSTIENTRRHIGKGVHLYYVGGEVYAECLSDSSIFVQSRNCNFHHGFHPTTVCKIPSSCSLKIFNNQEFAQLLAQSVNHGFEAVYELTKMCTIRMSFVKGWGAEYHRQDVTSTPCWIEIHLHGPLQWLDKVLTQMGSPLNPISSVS
UniProt P37173, residues 23-567: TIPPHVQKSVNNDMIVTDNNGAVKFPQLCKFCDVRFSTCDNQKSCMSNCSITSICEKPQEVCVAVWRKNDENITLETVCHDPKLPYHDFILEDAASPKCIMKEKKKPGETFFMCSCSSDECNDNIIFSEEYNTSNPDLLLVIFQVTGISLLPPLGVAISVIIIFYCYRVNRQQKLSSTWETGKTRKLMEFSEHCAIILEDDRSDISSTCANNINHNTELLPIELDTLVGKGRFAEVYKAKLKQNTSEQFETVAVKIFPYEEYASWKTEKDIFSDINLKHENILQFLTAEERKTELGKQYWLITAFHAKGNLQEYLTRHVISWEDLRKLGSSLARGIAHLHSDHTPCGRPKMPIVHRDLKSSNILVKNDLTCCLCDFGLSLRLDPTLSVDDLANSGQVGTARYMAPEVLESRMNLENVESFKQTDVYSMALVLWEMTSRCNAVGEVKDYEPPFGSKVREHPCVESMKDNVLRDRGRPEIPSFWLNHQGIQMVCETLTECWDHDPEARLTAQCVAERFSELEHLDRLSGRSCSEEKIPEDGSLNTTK
UniProt Q15797: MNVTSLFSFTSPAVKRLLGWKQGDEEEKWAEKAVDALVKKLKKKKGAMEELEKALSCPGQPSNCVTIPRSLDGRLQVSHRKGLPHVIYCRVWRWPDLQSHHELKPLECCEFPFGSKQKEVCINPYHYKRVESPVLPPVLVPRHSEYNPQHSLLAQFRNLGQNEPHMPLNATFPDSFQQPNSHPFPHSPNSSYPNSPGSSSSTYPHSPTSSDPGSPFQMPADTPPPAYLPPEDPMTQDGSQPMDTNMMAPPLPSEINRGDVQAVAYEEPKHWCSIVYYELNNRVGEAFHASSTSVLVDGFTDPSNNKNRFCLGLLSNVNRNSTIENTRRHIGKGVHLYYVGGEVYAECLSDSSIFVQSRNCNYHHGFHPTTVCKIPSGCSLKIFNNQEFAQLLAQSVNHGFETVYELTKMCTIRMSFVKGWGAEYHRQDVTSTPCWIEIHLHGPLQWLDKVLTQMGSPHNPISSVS
UniProt P19474: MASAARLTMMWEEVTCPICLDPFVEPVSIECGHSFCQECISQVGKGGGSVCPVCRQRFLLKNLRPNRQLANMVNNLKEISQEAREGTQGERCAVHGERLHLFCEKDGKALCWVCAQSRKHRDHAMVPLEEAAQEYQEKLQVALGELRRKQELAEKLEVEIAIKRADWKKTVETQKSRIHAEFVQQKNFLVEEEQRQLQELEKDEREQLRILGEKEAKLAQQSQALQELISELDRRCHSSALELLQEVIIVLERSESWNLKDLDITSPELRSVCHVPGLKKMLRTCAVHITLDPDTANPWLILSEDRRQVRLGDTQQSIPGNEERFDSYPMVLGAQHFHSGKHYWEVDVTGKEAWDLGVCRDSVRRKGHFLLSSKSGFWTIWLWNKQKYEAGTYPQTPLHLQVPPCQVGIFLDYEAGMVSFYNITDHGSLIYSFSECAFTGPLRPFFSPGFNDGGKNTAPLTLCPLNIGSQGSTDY

Target: T1, endogenous endoglin (ENG) (human (endogenous in HAOECs, HUVECs, HPAECs)) (UniProt P17813)
T1 sequence: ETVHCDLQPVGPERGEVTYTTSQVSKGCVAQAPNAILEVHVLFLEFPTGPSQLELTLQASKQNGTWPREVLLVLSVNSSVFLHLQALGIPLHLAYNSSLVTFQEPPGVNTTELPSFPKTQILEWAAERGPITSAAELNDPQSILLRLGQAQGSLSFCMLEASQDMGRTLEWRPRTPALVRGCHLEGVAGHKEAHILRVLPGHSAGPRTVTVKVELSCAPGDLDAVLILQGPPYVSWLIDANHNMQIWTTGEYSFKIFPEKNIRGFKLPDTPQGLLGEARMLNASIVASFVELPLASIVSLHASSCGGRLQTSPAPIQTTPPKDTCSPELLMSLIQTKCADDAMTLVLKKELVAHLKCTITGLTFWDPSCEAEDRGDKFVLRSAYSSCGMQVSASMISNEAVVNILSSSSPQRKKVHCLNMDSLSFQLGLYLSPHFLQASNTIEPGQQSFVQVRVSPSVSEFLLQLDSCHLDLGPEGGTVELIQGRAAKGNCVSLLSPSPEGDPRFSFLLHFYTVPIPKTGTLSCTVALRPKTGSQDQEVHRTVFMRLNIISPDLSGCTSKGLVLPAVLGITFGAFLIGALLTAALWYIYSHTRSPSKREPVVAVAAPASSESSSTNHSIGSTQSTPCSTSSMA
Test: condition: only cells in 10% FBS or treated with pro:BMP9 (Smad1/5 phosphorylation activated); affinity purification with mass spectrometry; as a12, only the cells in 10% FBS or in 0.1% FBS treated with pro:BMP9 (Smad1/5 phosphorylation active)

Substance	binding
endogenous ALK1 (from UniProt P37023 22-503) (receptor)	no binding

Target: T1, endogenous endoglin (ENG) (human (endogenous in HAOECs, HUVECs, HPAECs))
Test: affinity purification with mass spectrometry; TRC105 (anti-ENG) NHS affinity column against a BSA-NHS control column; lysates (1% Triton-X100/PBS, 2 mM EDTA) of HAOECs, HUVECs and HPAECs kept in 0.1% FBS, 10% FBS, or 0.1% FBS with 0.25 ng/ml pro:BMP9 for 40 min; elution with 0.15 M glycine pH 2.5; LC-MS/MS

Substance	binding
SMAD2 (from UniProt Q15796 1-467)	binds
SMAD5 (from UniProt Q99717 1-465)	binds
endogenous ALK1 (from UniProt P37023 22-503) (receptor)	binds
endogenous TGF-beta type II receptor (TGFBRII) (from UniProt P37173 23-567)	binds

Other lines, results leading:

binding	Substance
binds	SMAD1 (from UniProt Q15797 1-465)
binds	TRIM21 (from UniProt P19474 1-475)
